# Taken from: PubChem BioAssay AID504774 (Drosophila RNAi Screening Center, 2011)
# Purpose: 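Knock-downs that shift viability of MMS-exposed cells relative to untreated ones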 (primary screen)
# Cells: Drosophila Kc167 cells
# Knock-down reagent: long dsRNA against Drosophila genes, about 0.25 µg dsRNA per well
# Timing: about 6 days: 3 days knock-down, then 3 days with or without MMS
# Treatment: methyl methanesulphonate 0.004% (w/v) for 3 days after knock-down
# Read-out: 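ATP-dependent luminescence as a measure of live cells in MMS-exposed wells, quantile normalised within each plate, with replicate values also given as a mean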
# Direction: mean viability with MMS and viability with MMS: higher = more surviving cells after MMS
# In all, the deposit lists about 23,000 reagents; this is a random part of those that have a named target and a result. 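Values are quantile-normalised luminescence on an arbitrary scale; higher means more cells surviving MMS.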 Names joined by + are all predicted targets of the reagent. Further read-outs or replicates are left out here.
The opening 2 records, ahead of the listing:
predicted target,dsRNA,mean viability with MMS,"viability with MMS, replicate 1"
CG4377,DRSC04467,3.64e6,4.16e6
CG7191,DRSC03022,3.48e6,3.88e6

Main list, from the first entry:
predicted target,dsRNA,mean viability with MMS,"viability with MMS, replicate 1"
CG4377,DRSC04467,3.64e6,4.16e6
CG7191,DRSC03022,3.48e6,3.88e6
Blos4,DRSC10151,3.62e6,4.14e6
Hex-t2,DRSC22517,3.37e6,3.86e6
MFS15,DRSC06523,3.34e6,3.70e6
atlas,DRSC04183,3.43e6,3.67e6
Atg4b,DRSC15988,3.49e6,3.93e6
18w,DRSC05029,3.63e6,4.20e6
CG32052,DRSC10966,3.54e6,3.98e6
zen2,DRSC12633,3.60e6,4.20e6
HisT,DRSC05051,3.48e6,3.98e6
HisT,DRSC05052,3.81e6,4.27e6
HisT,DRSC06405,3.45e6,3.93e6
Nup214,DRSC04421,3.56e6,3.86e6
Samtor,DRSC04390,3.75e6,4.43e6
CG30060,DRSC05419,3.58e6,3.97e6
CG11110,DRSC06037,3.55e6,3.96e6
CG12877,DRSC14565,3.43e6,3.80e6
CG13068,DRSC09951,3.49e6,3.86e6
Snoo,DRSC01008,3.71e6,4.18e6
Snoo,DRSC03004,3.65e6,4.04e6
Snoo,DRSC03035,3.63e6,4.14e6
Obp56i,DRSC05812,3.53e6,4.08e6
mfr,DRSC10543,3.49e6,3.93e6
TrissinR,DRSC02334,3.60e6,4.06e6
TrissinR,DRSC02335,3.63e6,4.10e6
TrissinR,DRSC02336,3.51e6,3.87e6
eIF2Balpha,DRSC16332,3.47e6,3.97e6
M6,DRSC11869,3.45e6,3.84e6
blow,DRSC07586,3.51e6,4.01e6
CG4575 (retired record),DRSC18372,3.50e6,4.17e6
CG32640 + CG32641,DRSC22885,3.42e6,3.95e6
Nup98-96,DRSC14209,3.12e6,3.65e6
Nup98-96,DRSC14210,3.31e6,3.68e6
ms(2)34Fe,DRSC01905,3.51e6,4.00e6
CG15534,DRSC15070,3.50e6,4.01e6
Datp,DRSC01102,3.49e6,4.05e6
CG30273,DRSC22059,3.56e6,4.03e6
Ulp1,DRSC19339,3.59e6,4.06e6
CG17065,DRSC20544,3.75e6,4.17e6
CG15676,DRSC04267,3.55e6,4.03e6
Nup37,DRSC14419,3.59e6,4.03e6
BBS9,DRSC04257,3.52e6,3.93e6
Top2,DRSC03459,3.40e6,3.79e6
Naprt,DRSC00630,3.43e6,3.82e6
Or59c,DRSC04633,3.55e6,3.84e6
SmydA-1,DRSC07200,3.72e6,4.04e6
CG6931,DRSC10750,3.62e6,3.99e6
CG32845,DRSC07867,3.72e6,4.30e6
Dscam2,DRSC08869,3.56e6,4.00e6
Dscam2,DRSC10198,3.50e6,4.03e6
Dscam2,DRSC11018,3.80e6,4.20e6
Dscam2,DRSC11019,3.62e6,3.98e6
Dscam2,DRSC22526,3.05e6,3.74e6
CG31091,DRSC15933,3.62e6,4.05e6
ACXA,DRSC00844,3.67e6,4.13e6
MtnC,DRSC22879,3.44e6,3.89e6
Nepl3,DRSC02681,3.49e6,4.09e6
Or43a,DRSC07485,3.47e6,3.96e6
tay,DRSC20142,3.55e6,4.39e6
Jon99Fii,DRSC15430,3.58e6,4.07e6
MED8,DRSC06426,3.44e6,4.03e6
CG15365,DRSC18038,2.99e6,3.46e6
CG15365,DRSC23021,3.61e6,4.22e6
DIP-iota,DRSC02140,3.58e6,4.13e6
Gcna,DRSC18553,3.74e6,4.32e6
Pglym78,DRSC16787,3.66e6,4.08e6
bcd,DRSC12624,3.76e6,4.23e6
